Experimental findings from the supplement of paper PMC11546906 are described below.

Where a name gives a salt, the structure may show the parent alone. This is one part of the list. Repeats in this data set agree poorly, so a single value says little.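 FDA-approved drugs were each paired with colistin at one-eighth its MIC and screened against a multidrug-resistant, mcr-1-positive clinical E. coli isolate, with OD600 read after 24 h. Drug-free bacteria served as growth control, plain broth as blank. Combinations were active if OD600 dropped below 0.2.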

This experiment concerns Escherichia coli 42 (mcr-1-positive clinical isolate). Nature of the experiment: OD600 after 24 h growth with compound plus colistin (absorbance units (OD600)); higher = more bacterial growth (less inhibition). Conditions: first compound 25 µM; colistin concentration 0.5 ug/mL; incubation time 24 h; 37 °C.
For the molecule `CNCC[C@H](Oc1cccc2ccccc12)c1cccs1` [Duloxetine hydrochloride] + CCC(C)CCCC(=O)N[C@@H](CCN)C(=O)N[C@H](C(=O)N[C@@H](CCN)C(=O)N[C@H]1CCNC(=O)[C@H]([C@@H](C)O)NC(=O)[C@H](CCN)NC(=O)[C@H](CCN)NC(=O)[C@H](CC(C)C)NC(=O)[C@@H](CC(C)C)NC(=O)[C@H](CCN)NC1=O)[C@@H](C)O [colistin], the OD600 is inactive: 0.818.
In the case of `CN(CCOc1ccc(CC2SC(=O)NC2=O)cc1)c1ccccn1` (centres undefined) [Rosiglitazone maleate] + CCC(C)CCCC(=O)N[C@@H](CCN)C(=O)N[C@H](C(=O)N[C@@H](CCN)C(=O)N[C@H]1CCNC(=O)[C@H]([C@@H](C)O)NC(=O)[C@H](CCN)NC(=O)[C@H](CCN)NC(=O)[C@H](CC(C)C)NC(=O)[C@@H](CC(C)C)NC(=O)[C@H](CCN)NC1=O)[C@@H](C)O [colistin] it was inactive: 0.866.
The figure for `N[C@@H](Cc1cc(I)c(Oc2cc(I)c(O)c(I)c2)c(I)c1)C(=O)O` [L-Thyroxine] + CCC(C)CCCC(=O)N[C@@H](CCN)C(=O)N[C@H](C(=O)N[C@@H](CCN)C(=O)N[C@H]1CCNC(=O)[C@H]([C@@H](C)O)NC(=O)[C@H](CCN)NC(=O)[C@H](CCN)NC(=O)[C@H](CC(C)C)NC(=O)[C@@H](CC(C)C)NC(=O)[C@H](CCN)NC1=O)[C@@H](C)O [colistin] is inactive: 1.14; for `C#C[C@]1(O)CC[C@H]2[C@@H]3CCC4=CC(=O)CC[C@@H]4[C@H]3CC[C@@]21C` [Norethindrone] + CCC(C)CCCC(=O)N[C@@H](CCN)C(=O)N[C@H](C(=O)N[C@@H](CCN)C(=O)N[C@H]1CCNC(=O)[C@H]([C@@H](C)O)NC(=O)[C@H](CCN)NC(=O)[C@H](CCN)NC(=O)[C@H](CC(C)C)NC(=O)[C@@H](CC(C)C)NC(=O)[C@H](CCN)NC1=O)[C@@H](C)O [colistin] it is inactive: 0.809; for `NC(=O)c1cn(Cc2c(F)cccc2F)nn1` [Rufinamide] + CCC(C)CCCC(=O)N[C@@H](CCN)C(=O)N[C@H](C(=O)N[C@@H](CCN)C(=O)N[C@H]1CCNC(=O)[C@H]([C@@H](C)O)NC(=O)[C@H](CCN)NC(=O)[C@H](CCN)NC(=O)[C@H](CC(C)C)NC(=O)[C@@H](CC(C)C)NC(=O)[C@H](CCN)NC1=O)[C@@H](C)O [colistin] it is inactive: 0.936.
In the case of `Cc1nc(Nc2ncc(C(=O)Nc3c(C)cccc3Cl)s2)cc(N2CCN(CCO)CC2)n1` [Dasatinib monohydrate] + CCC(C)CCCC(=O)N[C@@H](CCN)C(=O)N[C@H](C(=O)N[C@@H](CCN)C(=O)N[C@H]1CCNC(=O)[C@H]([C@@H](C)O)NC(=O)[C@H](CCN)NC(=O)[C@H](CCN)NC(=O)[C@H](CC(C)C)NC(=O)[C@@H](CC(C)C)NC(=O)[C@H](CCN)NC1=O)[C@@H](C)O [colistin] it was inactive: 0.998.
Consider `CN(C)c1ccc(C(=C2C=CC(=[N+](C)C)C=C2)c2ccc(N(C)C)cc2)cc1` [Crystal Violet] + CCC(C)CCCC(=O)N[C@@H](CCN)C(=O)N[C@H](C(=O)N[C@@H](CCN)C(=O)N[C@H]1CCNC(=O)[C@H]([C@@H](C)O)NC(=O)[C@H](CCN)NC(=O)[C@H](CCN)NC(=O)[C@H](CC(C)C)NC(=O)[C@@H](CC(C)C)NC(=O)[C@H](CCN)NC1=O)[C@@H](C)O [colistin], for which the OD600 was active: 0.148.
The figure for `C=C1CC[C@H](O)C/C1=C/C=C1\CCC[C@]2(C)[C@@H]([C@H](C)/C=C/[C@H](C)C(C)C)CC[C@@H]12` [Vitamin D2] + CCC(C)CCCC(=O)N[C@@H](CCN)C(=O)N[C@H](C(=O)N[C@@H](CCN)C(=O)N[C@H]1CCNC(=O)[C@H]([C@@H](C)O)NC(=O)[C@H](CCN)NC(=O)[C@H](CCN)NC(=O)[C@H](CC(C)C)NC(=O)[C@@H](CC(C)C)NC(=O)[C@H](CCN)NC1=O)[C@@H](C)O [colistin] is inactive: 1.01; for `COCCc1ccc(OCC(O)CNC(C)C)cc1` (centres undefined) [Metoprolol tartrate] + CCC(C)CCCC(=O)N[C@@H](CCN)C(=O)N[C@H](C(=O)N[C@@H](CCN)C(=O)N[C@H]1CCNC(=O)[C@H]([C@@H](C)O)NC(=O)[C@H](CCN)NC(=O)[C@H](CCN)NC(=O)[C@H](CC(C)C)NC(=O)[C@@H](CC(C)C)NC(=O)[C@H](CCN)NC1=O)[C@@H](C)O [colistin] it is inactive: 0.976.
